Reference: US20260258115A1

Target: RSV postfusion F (postF), subtype B (respiratory syncytial virus, subtype B)
Experiment: BLI, IgG

Row | Binder | binding
1 | ADI-14402 (antibody, V domains shown) VH: QVQLVQSGAEVKKPGASVKVSCKTSGYTFTNYGISWVRQAPGQGLEWMGWISAYNGNRNYAQKLQGRVTMTTDTSTSTAYMELRSLRSDDTAVYYCAREPPVIAAGDFSHWGQGTLVTVSS VL: EIVLTQSPLSLPVTLGQPASISCRSSQSLVHSDANTYLSWFQQRPGQSPRRLIYKVSNRDSGVPDRFSGSGSGTDFTLKISRVEAEDVGVYYCMQGTHWPPDFGQGTRLEIK | no binding
2 | ADI-14403 (antibody, V domains shown) VH: QVQLVESGGGLGKPGGSLRLSCAASGFTFSGYYMSWIRQAPGKGLEWVSDISSGSSFTNYADSVKGRFTISRDNAKNSLYLQMNSLKAEDTAVYYCARVPPDSYGSGSYSGDSWGQGTLVTVSS VL: QSVVTQPPSVSGAPGQRVTISCTGSSSNIGAGYGVHWYQQLPGTAPKLLIYGNTNRPSGVPDRISGSKSGTSASLVITGLQAEDEADYYCQSYDSSLSGWVFGGGTKLTVL | no binding
3 | ADI-14412 (antibody, V domains shown) VH: QVQLVQSGAEVKKPGASVKVSCKASGYTFTRYGISWVRQAPGQGLEWMGWISDYNGNTKNAEKFQGRVTMTTDTYTNIAYMELRSLRSDDTAVYYCARDWWITVGGIIAPFDYWGQGTLVTVSS VL: ETTLTQSPGTLSLSPGERATLSCRASQSVSSDYLAWFQQKPGQAPRLLIYGASSRATDIPDRFSGSGSGTDFTLTISRLESEDFAVYYCLHYAGARTFGQGTKVEIK | no binding
4 | ADI-14424 (antibody, V domains shown) VH: QVQLVQSGAEVKKPGESLKISCKGPDSSFSVYWIAWVRQMPGKGLEWMGVIYVGDSDTRYSPSFRGQVTISADKSMNTAYLQWSSLKASDTAMYFCARHIPPGPFDLWGQGTMVTVSS VL: NFMLTQPHSVSASPGKTITISCTRSSGSIASNSVQWYQQRPGSAPTNVIYEDDQRPLGVPNRFSGSIDSSSNSASLTISGLKTEDEADYYCHSYHNSDQVFGGGTKLTVL | no binding
5 | ADI-14428 (antibody, V domains shown) VH: EVQLLESGGGLVKPGGSLRLSCAASGFTFSDHYMSWIRQAPGKGLEWVSYISSTSSFTNYADSLKGRFTISRDNAKNSLYLQMNSLRAEDTAVYYCARPYIVALGTRAFDIWGQGTTVTVSS VL: SYVLTQPPSVSVAPGKTARITCGGNNIGSKTVHWYQQKPGQAPVLVSYYDSDRPSGIPERFSGSNSGNTATLTISRVEAGDEADYYCQVWDGSSEHYVFGTGTKVTVL | no binding
6 | ADI-14582 (antibody, V domains shown) VH: QVQLVQSGAEVKKPGESLKISCKGPDSSFSVYWIAWVRQMPGKGLEWMGVIYVGDSDTRYSPSFRGQVTISADKSINTAYLQWSSLKASDTAMYFCARHIPPGPFDLWGQGTTVTVSS VL: NFMLTQPHSVSASPGKTITISCTRSSGSIASNSVQWYQQRPGSAPTNVIYEDNQRPLGVPNRFSGSIDSSSNSASLTISGLKTEDEADYYCQSYHSSDQVFGGGTKVTVL | no binding
7 | ADI-14585 (antibody, V domains shown) VH: QVQLVQSGAEVKKPGASVKVSCKASGYTFANYGIGWVRQAPGQGLEWMGWISAYNGKTNYAQKFQGRVTMTTDTSTSTAYMELRSLRSDDTAVYYCAREPPVIAAGDFPHWGQGTLVTVSS VL: ETTLTQSPLSLPVTLGQPASISCRSSQSLEHSDLNTYLSWFQQRPGQSPRRLIYKVSNRDSGVPDRFSGSGSGTDFTLRISRVEAEDVGVYYCMQGTHWPPDFGQGTRLEIK | no binding
8 | ADI-14586 (antibody, V domains shown) VH: QVQLVQSGGGLVKPGGSLRLSCAASGFTFSDYYMSWIRQAPGKGLEWVSYISSSSSYTNYADSVKGRFTISRDNAKNSLYLQMNSLRAEDTAVYYCAKRTEYCSSTGCAYYFDYWGQGTLVTVSS VL: QSVVTQPPSVSGAPGQRVTISCTGSSSNIGAGYDVHWYQQLPGTAPKLLIYGNSNRPSGVPDRFSGSKSGTSASLAITGLQAEDEADYYCQSYDSSLSGSVFGGGTKVTVL | no binding
9 | ADI-14587 (antibody, V domains shown) VH: EVQLLESGGGLVKPGGSLRLSCAASGFTLTSYSMNWVRQAPGKGLEWVSSISSSSSYIHYADSVKGRFTISRDNAKNSLYLQMNSLRAEDTAVYYCAGSSLYPPFFDYWGQGTLVTVSS VL: QSVVTQPPSVSGAPGQRVTISCTGSSSNLGAGYDVHWYQQLPGTAPKLLIYGNNNRPSGVPDRFSGSKSGTSASLAITGLQAEDEADYYCQSYDSSLSSVVFGGGTKLTVL | no binding
10 | ADI-14588 (antibody, V domains shown) VH: QVQLVQSGAEVKKPGASVKVSCKVSGDTLTELSIHWVRQAPGKGHEWMGYFDHEDGEIMYAQKFQGRVTMTGDTSTDTAYMELSSLRSEDTAVYYCATVAAAGQFDYWGQGTLVTVSS VL: DIQLTQSPSSLSASVGDRVTITCRARQSISTYLNWYQQKPGKAPKLLIYAASSLQSGVPSRFSGSGSGTDFTLTISSLQPEDFATYYCQQSYSSPYTFGQGTKVDIK | no binding
11 | ADI-14591 (antibody, V domains shown) VH: QVQLVQSGAEVKKPGESLRISCTGSGYTFTNYWISWVRQMPGKGLEWMGRIDPTDSYTNYSPSFQGHVTISADKSISTAYLQSSSLKASDTATYYCARHRRLVPAAMSRGYYGMDVWGQGTTVTVSS VL: EIVMTQSPSSLSASVGDRATITCRASQSISSYLNWYQQKPGKAPKLLIYAASNLQSGAPSRFSGSGSGTDFTLTISSLQPEDFATYFCQQTYSTPYTFGQGTKVEIK | no binding
12 | ADI-14601 (antibody, V domains shown) VH: EVQLLESGGGLVQPGGSLRLSCAASGFTFSSYAMNWVRQAPGKGLEWVSTISGSGSSTYYADSVEGRFTISRDNSKNTLYLQMNSLRAEDTAIYYCAKEPRDMYIQQWLDSWGQGTLVTVSS VL: GIRLTQSPSSVSASVGDRVIITCRASQGIRSWLAWYQQKPGKAPKLLIYAASRLQSGVPSRFSGSGSETDFTLTISSLQPEDFASYYCQQANSFPLTFGGGTKVEIK | no binding
13 | ADI-14603 (antibody, V domains shown) VH: QVQLVQSGAEVKKPGESLKISCKGSGYTFTNYWIGWVRQMPGKGLEWMGIIYPGDSDTRYSPSFQGQVTISADKSITTAYLQWRVLKASDTAMYYCATMRGSSSHFHHWGQGTLVTVSS VL: DIQVTQSPSSLSASVGDRVTITCRAGQGIGNYLAWYQQKPGKVPKVLIYAASTLQSGVPSRFSGSGSGTEFTLTISSLQPEDVATYYCQKYNNAPYAFGQGTRLEIK | no binding
14 | ADI-20966 (antibody, V domains shown) VH: EVQLLESGGGLGKPGGSLRLSCAASGFKLSSYYMHWVRQAPGKGPEWVSSISASSSYINYADSVRGRFTVSRDNAKNSLFLQMNSLRVDDTAIYYCARGAPLTNFGMVLDSWGQGTLVTVSS VL: QSVLTQPPSVSGAPGQRVTISCTGSGSNIGAGYDVHWYQQVPGRVPKLLIYANNNRPSGVPDRFSGSKSGTSASLAITGLQADDEADYYCQSYDRSLNVVFGGGTKLTVL | no binding
15 | ADI-20978 (antibody, V domains shown) VH: EVQLVESGAEVKKPGASVKVSCKASGYTFGNYGISWVRQAPGQGLEWMGWISAYNGNSNYAQKFQGRVTMTTDTSASTAYMEVRSLRSDDTAVYYCARDVPVTAARLLDYWGQGTLVTVSS VL: DIVLTQTPLSLPVTLGQPASISCRSSQSLVYSDGNTYLSWFQQRPGQSPRRLIYKVSNRDSGVPDRFSGSGSGTDFTLKISRVEAEDVGVYYCMQATDWLGYTFGQGTKLEIK | no binding

These are yes or no findings as the source states them, for the method shown.
